Measured values: patent US20140227280A1 (CENTRE NATIONAL DE LA RECHERCHE SCIENTIFIQUE, published 2014)

By UniProt entry, the sequences of proteins in these tests, tags left out. Residues count along the entry.
UniProt P97310, 2-904 limits assumed: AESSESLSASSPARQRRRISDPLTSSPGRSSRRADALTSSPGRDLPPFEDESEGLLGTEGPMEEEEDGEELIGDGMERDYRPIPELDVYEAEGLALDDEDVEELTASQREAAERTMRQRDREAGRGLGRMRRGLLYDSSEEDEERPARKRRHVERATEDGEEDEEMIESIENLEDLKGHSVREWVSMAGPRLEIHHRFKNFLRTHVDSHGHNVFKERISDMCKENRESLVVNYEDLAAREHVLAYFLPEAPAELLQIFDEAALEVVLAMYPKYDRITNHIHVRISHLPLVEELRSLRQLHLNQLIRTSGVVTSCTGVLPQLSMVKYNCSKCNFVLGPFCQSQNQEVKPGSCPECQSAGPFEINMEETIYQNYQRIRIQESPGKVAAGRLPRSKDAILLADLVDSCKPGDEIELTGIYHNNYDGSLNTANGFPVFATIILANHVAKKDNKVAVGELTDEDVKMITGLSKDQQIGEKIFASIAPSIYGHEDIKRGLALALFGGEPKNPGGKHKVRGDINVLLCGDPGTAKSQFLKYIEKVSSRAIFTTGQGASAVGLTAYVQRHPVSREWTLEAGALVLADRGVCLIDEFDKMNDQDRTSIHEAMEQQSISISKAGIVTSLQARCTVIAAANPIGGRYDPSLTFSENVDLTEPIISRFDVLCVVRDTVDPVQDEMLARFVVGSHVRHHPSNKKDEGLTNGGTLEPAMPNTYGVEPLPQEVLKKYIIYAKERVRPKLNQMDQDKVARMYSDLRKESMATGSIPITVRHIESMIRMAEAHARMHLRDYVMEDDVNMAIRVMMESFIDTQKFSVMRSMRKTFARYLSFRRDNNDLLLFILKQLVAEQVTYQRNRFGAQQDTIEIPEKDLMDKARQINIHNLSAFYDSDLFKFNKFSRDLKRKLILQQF

Columns and labels:
[1] = molecular target: T1, MCM5 (mouse, UniProt P49718 2-734); test: co-immunoprecipitation from mouse testes extracts, western blot (FIG. 18A)
T1 construct: Detected by western blot (sc-22780) in the immunoprecipitates from mouse testes extracts; also called member of the MCM2-7 complex
T1 sequence (looked up): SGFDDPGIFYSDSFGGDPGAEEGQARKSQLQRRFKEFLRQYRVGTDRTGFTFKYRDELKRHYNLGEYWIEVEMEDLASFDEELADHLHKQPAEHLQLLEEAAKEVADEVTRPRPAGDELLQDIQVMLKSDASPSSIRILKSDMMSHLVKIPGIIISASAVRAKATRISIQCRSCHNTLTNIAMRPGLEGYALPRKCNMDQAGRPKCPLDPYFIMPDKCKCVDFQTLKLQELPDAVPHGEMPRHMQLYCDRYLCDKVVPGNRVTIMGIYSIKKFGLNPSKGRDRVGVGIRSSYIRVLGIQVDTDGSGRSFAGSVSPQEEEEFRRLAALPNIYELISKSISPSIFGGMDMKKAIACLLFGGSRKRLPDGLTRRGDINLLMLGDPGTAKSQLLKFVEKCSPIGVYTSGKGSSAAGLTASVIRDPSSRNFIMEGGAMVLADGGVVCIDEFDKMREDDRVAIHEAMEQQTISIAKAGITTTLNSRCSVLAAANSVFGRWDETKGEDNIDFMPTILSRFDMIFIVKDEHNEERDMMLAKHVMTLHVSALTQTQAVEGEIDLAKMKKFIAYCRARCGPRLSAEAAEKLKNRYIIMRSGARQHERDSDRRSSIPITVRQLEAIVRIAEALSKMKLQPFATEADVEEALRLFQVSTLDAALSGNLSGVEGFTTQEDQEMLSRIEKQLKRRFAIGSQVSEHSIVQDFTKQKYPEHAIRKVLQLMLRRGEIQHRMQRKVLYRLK
Source text: (§1) FIG. 18A represents immunoprecipitations of MCM8 (IP anti-MCM8; lane C) and MCM9 (IP anti-MCM9; lane D) from testes extracts blotted against MCM9 (panel 1), MCM8 (panel 2), MCM2 (panel 3) and MCM5 (panel 4). To normalize the loading, IgGs of each IP are also shown (panel 5).

[2] = molecular target: T2, MCM2 (mouse, UniProt P97310 2-904); test: as above
T2 construct: Detected by western blot (sc-9839) in the immunoprecipitates from mouse testes extracts; also called member of the MCM2-7 complex
Source text: as §1

B1: mouse MCM9 protein (other)
chain: MDQRTTRNGKYCDVEPVSRSNPAPCLRDPPLRRLVRPKPRLQLPESRLSPCSRLPLADSSVRPGARPPASAPGRSPSGRKVEAVRGSGSAGSSSPSEAEREQREEACAPPRKAAPSSGRAHAPPPPTPRGSGWGDHGRSAVPATKTVRVEPYPPFKMNSEQVTLVGQVFESYVSEYHKNDILLILKERDEDAHYPVVVNAMSLFETNMEIGDYFTVFPNEVLTVFDSALRRSALAILQSLPETEGLSMKQNLHARISGLPVCPELVREHIPKTKDVGHFLSVTGTVIRTSLVKVLEFERDYMCNKCKHVFMVEADFEQYYTFSRPSSCPSLASCDSSKFSCLSDLSSSPARCRDYQEIKIQEQVQRLSVGSIPRSMKVILEDDLVDSCKSGDDLTIYGVVMQRWKPFQRDVRCEVEIVLKANYVQVNNEQSSGMVMDEDTRKEFEDFWEHYKSDPFAGRNEILASLCPQVFGMYLVKLAVAMVLAGGIQRTDAAGTRVRGESHLLLVGDPGTGKSQFLKYAAKITPRSVLTTGIGSTSAGLTVTAVKDSGEWNLEAGALVLADAGLCCIDEFNSLKEHDRTSIHEAMEQQTISVAKAGLVCKLNTRTTILAATNPKGQYDPKESVSVNIALGSPLLSRFDLVLVLLDTRNEDWDRIISSFILENKGYPSKSENLWSMEKMKTYFCLIRNLHPTLSEVSNQVLLRYYQMQRQSDSRNAARTTIRLLESLIRLAEAHARLMFRSAVTLEDAVTAVSVMESSMQGGALLGGVNALHTSFPENPRAQYQRQCELILEKLELQGLLQEELRRLERLQNESVHQCQSHSLEEEVAPGSCRNDPRDKPRLRTSTQQEQSCSWSSTERSGADSPPGPGLNRPTSCNNSAENRDGRGDGLDWLDPTSSPEIAPESTIVSPNVKTTEKNVNLKISNNKSQGKEKHGPQQRSKLLEAGHLPSSGAMNAPLRSHGVKRTKASQAVVVSEAGRGDEEDSVPRRLPKLLKEGSQNVCRSTTRVRPLPPTVPLSLSIPSPGSGKRSGTPKRKRRKSAQVEEPEPEGMETPTVKLAKFTFKQKTKLTHSPEGQGPIPPSASEIAVDSSKIPQQRTRREAAVPVVAPGKSTSTSGDRCSDQLHGKTKELSRQPPDSNPPREEREQGPKRRVIQPKPELGNQAGHSHLACEKDRKEGVSCGNKSSKVHAGTIARLASFSFTSPSESKSESLPPERKDSRDSRDSRDSRDRCHSPPATTAPVLGQQRQTFQLQQPTERANLSTLSLFTLSELDDEALDFDWEEEMRKKP
notes: Endogenous protein in mouse testes extracts and MEF cell extracts
[1]
  binding result: no binding
[2]
  binding result: no binding
